In publication PMC10072965:
No constants are given. Whether binding was seen depends on the method and setting. In cells and extracts the contact can be indirect. Some results given as binding are weak or reduced against the parent protein; the word gives no strength.

The chains behind the UniProt entries cited, without tags or fusion partners.
UniProt Q8NHY2: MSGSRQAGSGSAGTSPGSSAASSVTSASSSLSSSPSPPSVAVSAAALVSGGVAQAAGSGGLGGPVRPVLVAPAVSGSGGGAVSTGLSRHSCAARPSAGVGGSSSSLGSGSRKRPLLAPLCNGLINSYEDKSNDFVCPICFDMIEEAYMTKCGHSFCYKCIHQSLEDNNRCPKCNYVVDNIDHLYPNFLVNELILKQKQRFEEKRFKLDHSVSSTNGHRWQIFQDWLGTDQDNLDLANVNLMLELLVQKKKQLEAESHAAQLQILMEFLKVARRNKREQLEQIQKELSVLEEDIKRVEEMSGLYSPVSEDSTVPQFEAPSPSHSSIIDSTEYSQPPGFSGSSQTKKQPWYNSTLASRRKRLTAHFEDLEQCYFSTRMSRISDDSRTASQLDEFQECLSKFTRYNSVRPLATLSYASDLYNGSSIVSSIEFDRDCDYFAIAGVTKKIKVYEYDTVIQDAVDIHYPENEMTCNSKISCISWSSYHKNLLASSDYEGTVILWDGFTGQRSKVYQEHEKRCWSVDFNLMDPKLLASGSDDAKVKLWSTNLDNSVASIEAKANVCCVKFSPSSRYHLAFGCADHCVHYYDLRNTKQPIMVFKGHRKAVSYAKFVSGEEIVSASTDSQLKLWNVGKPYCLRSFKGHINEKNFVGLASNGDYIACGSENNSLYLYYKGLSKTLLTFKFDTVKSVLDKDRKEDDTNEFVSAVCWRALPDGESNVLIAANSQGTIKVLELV

Target: COP1 over-expressed in HEK 293T cells (UniProt Q8NHY2)
Assay: co-IP; HEK 293T cells transfected with COP1 over-expression plasmid, 10 uM MG-132 for 6 hours, NP-40 lysis buffer; anti-COP1 antibody (IgG as control), protein A/G agarose, 4°C; detected by WB

B1: CDH18 in HEK 293T lysate (protein, UniProt Q13634 54-790)
chain: GWVWNQFFVLEEHMGPDPQYVGKLHSNSDKGDGSVKYILTGEGAGTIFIIDDTTGDIHSTKSLDREQKTHYVLHAQAIDRRTNKPLEPESEFIIKVQDINDNAPKFTDGPYIVTVPEMSDMGTSVLQVTATDADDPTYGNSARVVYSILQGQPYFSVDPKTGVIRTALHNMDREAREHYSVVIQAKDMAGQVGGLSGSTTVNITLTDVNDNPPRFPQKHYQLYVPESAQVGSAVGKIKANDADTGSNADMTYSIINGDGMGIFSISTDKETREGILSLKKPLNYEKKKSYTLNIEGANTHLDFRFSHLGPFKDATMLKIIVGDVDEPPLFSMPSYLMEVYENAKIGTVVGTVLAQDPDSTNSLVRYFINYNVEDDRFFNIDANTGTIRTTKVLDREETPWYNITVTASEIDNPDLLSHVTVGIRVLDVNDNPPELAREYDIIVCENSKPGQVIHTISATDKDDFANGPRFNFFLDERLPVNPNFTLKDNEDNTASILTRRRRFSRTVQDVYYLPIMISDGGIPSLSSSSTLTIRVCACERDGRVRTCHAEAFLSSAGLSTGALIAILLCVLILLAIVVLFITLRRSKKEPLIISEEDVRENVVTYDDEGGGEEDTEAFDITALRNPSAAEELKYRRDIRPEVKLTPRHQTSSTLESIDVQEFIKQRLAEADLDPSVPPYDSLQTYAYEGQRSEAGSISSLDSATTQSDQDYHYLGDWGPEFKKLAELYGEIESERTT
binding: binds
